Experimental data: publication PMC6294250
These are yes or no findings as the source states them, for the method shown. In cells and extracts the contact can be indirect. A yes stands for co-enrichment or nearness to the bait. Other partners may have been found.

By UniProt entry, the sequences of proteins in these tests, tags left out. Where a name states a change or a piece, a line headed by the entry shows the natural chain unless it says otherwise.
UniProt Q0WNJ6: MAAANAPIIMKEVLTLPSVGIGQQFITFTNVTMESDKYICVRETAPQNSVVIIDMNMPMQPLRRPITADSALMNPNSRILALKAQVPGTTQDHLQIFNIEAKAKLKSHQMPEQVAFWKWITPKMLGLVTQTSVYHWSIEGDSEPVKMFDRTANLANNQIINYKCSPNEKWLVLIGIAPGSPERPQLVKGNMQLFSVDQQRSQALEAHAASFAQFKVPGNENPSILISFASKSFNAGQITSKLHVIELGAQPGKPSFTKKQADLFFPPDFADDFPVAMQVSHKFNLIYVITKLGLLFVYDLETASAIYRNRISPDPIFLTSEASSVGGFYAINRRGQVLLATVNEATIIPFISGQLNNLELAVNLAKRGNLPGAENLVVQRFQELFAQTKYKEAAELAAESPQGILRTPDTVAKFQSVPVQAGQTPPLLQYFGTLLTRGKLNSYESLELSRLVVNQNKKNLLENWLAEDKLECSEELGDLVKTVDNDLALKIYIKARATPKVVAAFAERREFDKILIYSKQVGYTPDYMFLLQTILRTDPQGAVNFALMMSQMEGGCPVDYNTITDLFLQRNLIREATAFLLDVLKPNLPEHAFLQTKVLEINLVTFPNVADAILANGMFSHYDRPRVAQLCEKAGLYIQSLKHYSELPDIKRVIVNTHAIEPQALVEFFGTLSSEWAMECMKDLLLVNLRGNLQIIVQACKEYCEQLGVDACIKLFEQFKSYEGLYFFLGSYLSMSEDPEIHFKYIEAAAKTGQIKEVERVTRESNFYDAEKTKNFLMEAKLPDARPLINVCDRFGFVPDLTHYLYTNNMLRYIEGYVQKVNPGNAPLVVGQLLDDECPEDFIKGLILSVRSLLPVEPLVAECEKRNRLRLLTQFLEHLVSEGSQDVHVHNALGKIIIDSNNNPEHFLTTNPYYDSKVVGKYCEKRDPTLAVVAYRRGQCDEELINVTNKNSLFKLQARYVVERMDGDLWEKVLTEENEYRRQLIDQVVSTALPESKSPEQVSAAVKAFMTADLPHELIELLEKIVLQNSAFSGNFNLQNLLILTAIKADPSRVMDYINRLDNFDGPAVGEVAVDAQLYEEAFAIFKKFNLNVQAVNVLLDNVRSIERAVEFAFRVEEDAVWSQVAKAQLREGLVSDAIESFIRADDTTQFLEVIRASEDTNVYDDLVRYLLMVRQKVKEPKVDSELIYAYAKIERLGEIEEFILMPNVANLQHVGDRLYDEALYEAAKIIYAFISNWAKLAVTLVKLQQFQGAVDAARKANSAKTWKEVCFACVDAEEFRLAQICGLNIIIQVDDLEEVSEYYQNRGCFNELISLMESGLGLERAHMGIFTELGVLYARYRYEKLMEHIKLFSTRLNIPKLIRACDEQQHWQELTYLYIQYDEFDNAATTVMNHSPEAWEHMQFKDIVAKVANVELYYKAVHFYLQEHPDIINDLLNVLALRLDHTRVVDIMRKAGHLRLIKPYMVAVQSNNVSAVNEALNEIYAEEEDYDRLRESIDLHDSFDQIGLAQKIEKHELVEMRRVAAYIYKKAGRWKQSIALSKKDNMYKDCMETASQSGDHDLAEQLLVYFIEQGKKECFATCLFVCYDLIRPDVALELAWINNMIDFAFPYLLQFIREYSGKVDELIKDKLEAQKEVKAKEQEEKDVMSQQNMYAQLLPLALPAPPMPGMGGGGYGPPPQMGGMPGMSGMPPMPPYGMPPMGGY
UniProt O23654: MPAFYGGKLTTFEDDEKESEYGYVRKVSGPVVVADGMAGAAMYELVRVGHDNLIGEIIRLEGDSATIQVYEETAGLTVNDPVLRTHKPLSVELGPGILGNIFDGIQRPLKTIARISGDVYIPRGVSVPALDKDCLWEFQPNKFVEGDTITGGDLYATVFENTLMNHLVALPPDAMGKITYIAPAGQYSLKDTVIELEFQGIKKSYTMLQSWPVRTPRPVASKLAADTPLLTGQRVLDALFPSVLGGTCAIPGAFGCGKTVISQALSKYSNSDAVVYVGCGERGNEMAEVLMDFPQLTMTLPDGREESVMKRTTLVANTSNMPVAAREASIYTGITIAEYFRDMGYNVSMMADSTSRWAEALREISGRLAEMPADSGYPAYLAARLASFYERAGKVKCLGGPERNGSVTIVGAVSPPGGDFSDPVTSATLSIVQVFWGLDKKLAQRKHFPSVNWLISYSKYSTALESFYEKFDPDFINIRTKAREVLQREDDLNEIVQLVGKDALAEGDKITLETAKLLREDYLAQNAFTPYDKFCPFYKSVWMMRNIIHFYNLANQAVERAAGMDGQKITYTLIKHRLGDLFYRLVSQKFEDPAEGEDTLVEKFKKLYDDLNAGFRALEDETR

Target: TGNap1-YFP (Arabidopsis thaliana) (UniProt F4KCQ2)
Test: affinity purification with mass spectrometry; extract of 2-week-old Arabidopsis seedlings overexpressing TGNap1-YFP; anti-GFP serum on Dynabeads Protein A; LC/MS/MS; untransformed Col-0 as control

binding	Substance
binds	clathrin heavy chain (CHC) (from UniProt Q0WNJ6)
binds	vacuolar ATP synthase subunit A (from UniProt O23654 1-623)
